{"source": "PubChem BioAssay AID445", "about": "(National Center for Advancing Translational Sciences (NCATS), 2006)", "note": "Some of the results follow. These are further read-outs of the screen, such as a control signal, another cell line or another target. No call is given for them. Compounds called inactive in the main read-out are mostly missing here. Potencies come from curve fits of mixed quality, noted in brackets.", "data": [{"assay": "IkB Signaling", "conditions": "ABC-DLBCL IkBa-CBG/CBR dual luciferase ratio (green luciferase fused to IkBa over red control in OCI-Ly3 lymphoma cells), 4 h; measured here: control luc red channel unless noted", "in_short": "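Luminescence ratio of IκBα-fused green versus native red beetle luciferase in OCI-Ly3 cells, 4 h post-doxycycline with compound; red signal alone, scaled from basal (0%) to zero light (-100%), flagged nonspecific or cytotoxic effects.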", "values": [{"smiles": "COc1cc(SC)ccc1C(=O)Nc1ccc2c(c1)OCCO2", "AC50": "25.1 µM [falling, partial curve]"}, {"smiles": "COc1ccc(-n2c(/C=C/c3cccc(C(F)(F)F)c3)nc3ccccc3c2=O)cc1Cl", "AC50": "39.8 µM [falling, partial curve]"}, {"smiles": "Cn1cc(S(=O)(=O)N2CCCCCC2)cc1C(=O)N1CCN(c2cccc(C(F)(F)F)c2)CC1", "AC50": "12.6 µM [falling, partial curve, poor fit]"}, {"smiles": "N#Cc1ccccc1NC(=O)C(=O)NCCc1csc(-c2ccc(C(F)(F)F)cc2)n1", "AC50": "2.51 µM [rising, partial curve]"}, {"smiles": "CN(C)c1ccc(NC(=O)c2ccc(COc3cccc(Cl)c3)o2)cc1", "AC50": "15.8 µM [falling, partial curve]"}, {"smiles": "O=C1CSC2(C(=O)N(Cc3ccccc3)c3ccccc32)N1c1cccc(F)c1", "note": "(stereo unspecified)", "AC50": "39.8 µM [falling, single point]"}, {"smiles": "CCc1ccc(NC(=O)COC(=O)CCCC2=NS(=O)(=O)c3ccccc3N2)cc1", "AC50": "2.51 µM [rising, full curve]"}, {"smiles": "Cc1cc(C)c(NC(=O)CSc2nc3ccccc3c3nc(CCn4cncc4C)nn23)c(C)c1", "AC50": "0.00631 µM [rising, full curve, poor fit]"}, {"smiles": "Cn1c(C(=O)N2CCN(c3nc4ccccc4s3)CC2)cc2sccc21", "AC50": "39.8 µM [rising, single point] [measured here: IkB-luc green channel]"}, {"smiles": "CCN(CC)CCCNc1cc(-c2ccccc2)nc(C)n1", "AC50": "20 µM [falling, single point]"}, {"smiles": "CCOc1ccc2nc(N3CCN(C(=O)c4ccc(S(=O)(=O)CC)cc4)CC3)sc2c1", "AC50": "39.8 µM [falling, single point]"}, {"smiles": "Cc1ccc(/C=C/C(=O)Nc2nc(-c3cccs3)ns2)cc1", "AC50": "0.251 µM [rising, full curve, poor fit]"}, {"smiles": "COc1ccc(-n2cc(C(=O)N(CCN(C)C)Cc3ccccc3)c3ccccc3c2=O)cc1", "AC50": "15.8 µM [falling, partial curve]"}, {"smiles": "C=C(CC)C(=O)c1ccc(OCC(=O)O)c(Cl)c1Cl", "AC50": "12.6 µM [falling, partial curve]"}, {"smiles": "COc1cc(C(=O)N(Cc2ccc(F)cc2)Cc2ccco2)cc(OC)c1OC", "AC50": "39.8 µM [falling, single point]"}, {"smiles": "COc1cc(OC)cc(C(=O)Nc2cc(-c3nc4ccccc4[nH]3)ccc2C)c1", "AC50": "25.1 µM [falling, single point]"}, {"smiles": "O=C(/C=C/c1ccco1)Nc1ccc(F)cc1", "AC50": "20 µM [falling, partial curve]"}, {"smiles": "COC(=O)c1c(SC)nc2ccccc2c1OCc1ccc(Br)cc1", "AC50": "10 µM [falling, partial curve]"}, {"smiles": "O=c1c2sccc2n(Cc2cc(=O)n3ccccc3n2)c(=O)n1-c1cc(F)ccc1F", "AC50": "15.8 µM [rising, single point]"}, {"smiles": "CC1=C(C(=O)Nc2cc(Cl)ccc2C)C2(CCCCC2)OC1=O", "AC50": "20 µM [falling, partial curve, poor fit]"}, {"smiles": "Cc1cc(C)cc(NC(=O)CCc2nnc3n(C)c(=O)c4sccc4n23)c1", "AC50": "10 µM [falling, partial curve]"}, {"smiles": "Cc1cc(C)n2nc(CNC(=O)c3ccccc3Cl)nc2n1", "AC50": "12.6 µM [falling, single point]"}, {"smiles": "COC(=O)c1c(-c2ccco2)csc1NC(=O)C1CC=CCC1C(=O)O", "note": "(stereo unspecified)", "AC50": "20 µM [falling, partial curve]"}, {"smiles": "COc1ccc2c(C)c(CCC(=O)NCc3ccc(C)cc3)c(=O)oc2c1", "AC50": "20 µM [falling, partial curve]"}, {"smiles": "CCC(CC)C(=O)OCc1cc(=O)n2nc(C3CCCCC3)sc2n1", "AC50": "25.1 µM [falling, partial curve]"}, {"smiles": "Cc1ccc(-c2c(C(=O)N3CCN(c4cccc(C)c4)C(C)C3)oc(=O)c3ccccc23)cc1", "note": "(stereo unspecified)", "AC50": "3.16 µM [falling, full curve]"}, {"smiles": "COC(=O)C1=C(C)N=C2SCCC(=O)N2C1c1ccc(OCc2ccccc2)c(OC)c1", "note": "(stereo unspecified)", "AC50": "25.1 µM [falling, single point]"}, {"smiles": "CC(C)(C)OC(=O)N1CCC(c2c(C(=O)NCCc3ccsc3)cnn2-c2ccccc2Cl)CC1", "AC50": "39.8 µM [falling, partial curve, poor fit]"}, {"smiles": "CCOc1ccc(N2C(=O)CS(=O)(=O)C23C(=O)N(Cc2cccc(Cl)c2)c2ccccc23)cc1", "note": "(stereo unspecified)", "AC50": "7.94 µM [falling, partial curve]"}, {"smiles": "CCc1c(C)nc2nncn2c1Nc1ccc(Cl)cc1", "AC50": "5.01 µM [falling, full curve]"}, {"smiles": "COc1ccc(-n2c(=O)c3c4c(sc3n(Cc3ccc(C)cc3C)c2=O)CCC4)c(OC)c1", "AC50": "12.6 µM [falling, partial curve, poor fit]"}, {"smiles": "CCC(C(=O)Nc1ccc(C(C)=O)cc1)n1cnc2nc3c(cc2c1=O)CCCC3", "note": "(stereo unspecified)", "AC50": "0.0398 µM [rising, full curve, poor fit]"}, {"smiles": "COc1ccc(OC)c(CNC(=O)Cn2ncc3c([nH]c4ccc(C)cc43)c2=O)c1", "AC50": "0.631 µM [rising, full curve]"}, {"smiles": "O=C(NCCC1=CCCCC1)C1CCN(Cc2cnn(-c3ccccc3)c2-n2cccc2)CC1", "AC50": "20 µM [falling, partial curve]"}, {"smiles": "CCCCCCCCCCCCCCCC(=O)O[C@H](CC(=O)O)C[N+](C)(C)C", "AC50": "25.1 µM [rising, partial curve]"}, {"smiles": "COc1ccc(N2CC(NC(=O)COc3ccc(F)cc3)CC2=O)cc1OC", "note": "(stereo unspecified)", "AC50": "0.2 µM [falling, full curve, poor fit]"}, {"smiles": "CCOC(=O)C(=O)NCC(c1cccnc1)N1CCN(c2ccccc2)CC1", "note": "(stereo unspecified)", "AC50": "25.1 µM [falling, single point]"}, {"smiles": "CCC1CN(C(=O)NCc2ccccc2)c2cc(Cl)ccc2O1", "note": "(stereo unspecified)", "AC50": "15.8 µM [falling, partial curve]"}, {"smiles": "Cc1ccc(-c2nc3c(c(SCC(=O)N(C)c4ccccc4)n2)Cc2c(CO)cnc(C)c2O3)cc1", "AC50": "5.01 µM [rising, partial curve]"}, {"smiles": "COc1ccc(S(=O)(=O)NCCc2nnc3ccc(SCC(=O)Nc4cc(C)cc(C)c4)nn23)cc1", "AC50": "25.1 µM [falling, single point]"}, {"smiles": "Cn1c(=O)n(C)c2cc(N3CCOCC3)c(NC(=O)c3ccc(Cl)cc3)cc21", "AC50": "3.16 µM [rising, partial curve, poor fit]"}, {"smiles": "O=C(NCc1ccc2c(c1)CCN2C(=O)c1ccncc1)c1ccccc1Cl", "AC50": "25.1 µM [falling, partial curve]"}, {"smiles": "Cc1ccc(Cl)cc1N1CCN(C(=O)c2ccc(NS(=O)(=O)c3c(C)noc3C)cc2)CC1", "AC50": "12.6 µM [falling, partial curve]"}, {"smiles": "COc1ccccc1CCNC(=O)C(=O)NCC(c1ccco1)S(=O)(=O)c1ccc(F)cc1", "note": "(stereo unspecified)", "AC50": "25.1 µM [falling, single point]"}, {"smiles": "COc1ccc(OC)c(CCNC(=O)c2cc3cccc4c3n2CC(C)S4)c1", "note": "(stereo unspecified)", "AC50": "20 µM [falling, partial curve]"}, {"smiles": "COc1cccc(N2CCN(C(=O)C3CCCN(S(=O)(=O)c4ccc5c(c4)oc(=O)n5C)C3)CC2)c1", "note": "(stereo unspecified)", "AC50": "20 µM [falling, partial curve, poor fit]"}, {"smiles": "Cc1nc2ccc(C(=O)O)cc2c2c1CC(C)S2", "note": "(stereo unspecified)", "AC50": "1.26 µM [falling, full curve] [measured here: IkB-luc green channel]"}, {"smiles": "COc1cccc(CC(=O)Nc2ccc(-c3nc4ccccc4s3)cc2Cl)c1", "AC50": "6.31 µM [rising, single point]"}, {"smiles": "Cc1ccnc(NS(=O)(=O)c2ccc(NC(=O)C3CCCCC3)cc2)n1", "AC50": "6.31 µM [falling, partial curve]"}, {"smiles": "Cc1ccc2nc(-c3ccc(F)cc3)c(NC(C)(C)CC(C)(C)C)n2c1", "AC50": "10 µM [falling, partial curve]"}, {"smiles": "CC(C)NC(=O)c1ccc2c(c1)N(Cc1cccc(Cl)c1)C(=O)c1ccccc1S2=O", "note": "(stereo unspecified)", "AC50": "0.01 µM [rising, full curve]"}, {"smiles": "COc1ccc(NC(=O)CN2CCN(Cc3ccccc3Cl)S2(=O)=O)cc1Cl", "AC50": "20 µM [falling, partial curve]"}, {"smiles": "CCCN1C(=O)C(O)(CC(=O)c2ccc(C(C)C)cc2)c2ccccc21", "note": "(stereo unspecified)", "AC50": "39.8 µM [falling, single point]"}, {"smiles": "CN1CCN(Cc2c(O)ccc3cc(-c4ccc(Cl)cc4)c(=O)oc23)CC1", "AC50": "6.31 µM [falling, partial curve, poor fit]"}, {"smiles": "Cc1nc2c(-c3ccc(F)cc3)c(C)nn2c(C)c1CCC(=O)NC(C)CCc1ccco1", "note": "(stereo unspecified)", "AC50": "12.6 µM [falling, partial curve]"}, {"smiles": "CCN(C(=O)Cn1c(=O)oc2cc(S(=O)(=O)N3CCCCC3)ccc21)c1ccccc1", "AC50": "39.8 µM [falling, single point]"}, {"smiles": "CCc1cccc(NC(=O)CCc2c(C)nc3c(-c4ccccc4)c(C)nn3c2C)c1", "AC50": "12.6 µM [falling, partial curve]"}, {"smiles": "Cc1ccc(NC(=O)Cn2c(=O)n(CC(=O)NCCc3ccccc3)c(=O)c3ccccc32)cc1C", "AC50": "15.8 µM [falling, partial curve]"}, {"smiles": "CCCn1nc(-c2nnc(-c3ccc(C)c(C)c3)o2)c2ccccc2c1=O", "AC50": "0.631 µM [falling, full curve, poor fit]"}, {"smiles": "Cc1ccc(S(=O)(=O)c2cn(CC(=O)Nc3ccc(F)cc3)c3cc4c(cc3c2=O)OCO4)cc1", "AC50": "15.8 µM [falling, partial curve]"}, {"smiles": "Cc1ccc2cccc(NC(=O)c3cccc4c(Br)cccc34)c2n1", "AC50": "0.158 µM [rising, full curve]"}]}]}
